{
  "source": "the supplement of paper PMC8728848",
  "experiment_in_all_cases": "glycan array binding signal (z-score within array); higher = stronger binding",
  "conditions_in_all_cases": "glycan notation: IUPAC condensed, linker removed",
  "key": {"[1]": {"target": "Gal(b1-4)GlcNAc(b1-3)Gal(b1-4)GlcNAc(b1-3)Gal(b1-4)GlcNAc", "outline": "(§1)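 Glycan array data came from 3228 arrays in the Consortium for Functional Glycomics database, and only arrays with an available protein sequence were kept. Glycan names were put into IUPAC-condensed notation, and columns mapping to the same glycan were averaged. The binding signal is a within-array Z-score, averaged across arrays of one protein sequence run at different concentrations or buffers and across linkers. A negative Z-score can be read as non-binding.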"}, "[2]": {"target": "Gal(b1-4)GlcNAc(b1-3)Gal(b1-4)GlcNAc(b1-3)Gal(b1-4)GlcNAc(b1-2)Man(a1-3)[Gal(b1-4)GlcNAc(b1-3)Gal(b1-4)GlcNAc(b1-3)Gal(b1-4)GlcNAc(b1-2)Man(a1-6)]Man(b1-4)GlcNAc(b1-4)GlcNAc", "outline": "as §1"}, "[3]": {"target": "Gal(b1-4)GlcNAc(b1-3)Gal(b1-4)GlcNAc(b1-3)Gal(b1-4)GlcNAc(b1-2)Man(a1-3)[Gal(b1-4)GlcNAc(b1-3)Gal(b1-4)GlcNAc(b1-3)Gal(b1-4)GlcNAc(b1-2)Man(a1-6)]Man(b1-4)GlcNAc(b1-4)[Fuc(a1-6)]GlcNAc", "outline": "as §1"}, "[4]": {"target": "Gal(b1-4)GlcNAc(b1-3)Gal(b1-4)GlcNAc(b1-3)Gal(b1-4)GlcNAc(b1-2)[Gal(b1-4)GlcNAc(b1-3)Gal(b1-4)GlcNAc(b1-3)Gal(b1-4)GlcNAc(b1-6)]Man(a1-6)[Gal(b1-4)GlcNAc(b1-3)Gal(b1-4)GlcNAc(b1-3)Gal(b1-4)GlcNAc(b1-2)Man(a1-3)]Man(b1-4)GlcNAc(b1-4)[Fuc(a1-6)]GlcNAc", "outline": "as §1"}, "[5]": {"target": "Gal(b1-4)GlcNAc(b1-3)Gal(b1-4)GlcNAc(b1-3)Gal(b1-4)GlcNAc(b1-3)Gal(b1-4)GlcNAc(b1-2)Man(a1-3)[Gal(b1-4)GlcNAc(b1-3)Gal(b1-4)GlcNAc(b1-3)Gal(b1-4)GlcNAc(b1-3)Gal(b1-4)GlcNAc(b1-2)Man(a1-6)]Man(b1-4)GlcNAc(b1-4)GlcNAc", "outline": "as §1"}, "[6]": {"target": "Gal(b1-4)GlcNAc(b1-3)Gal(b1-4)GlcNAc(b1-3)Gal(b1-4)GlcNAc(b1-3)Gal(b1-4)GlcNAc(b1-2)Man(a1-3)[Gal(b1-4)GlcNAc(b1-3)Gal(b1-4)GlcNAc(b1-3)Gal(b1-4)GlcNAc(b1-3)Gal(b1-4)GlcNAc(b1-2)Man(a1-6)]Man(b1-4)GlcNAc(b1-4)[Fuc(a1-6)]GlcNAc", "outline": "as §1"}, "[7]": {"target": "Gal(b1-4)GlcNAc(b1-3)Gal(b1-4)GlcNAc(b1-3)Gal(b1-4)GlcNAc(b1-3)Gal(b1-4)GlcNAc(b1-2)[Gal(b1-4)GlcNAc(b1-3)Gal(b1-4)GlcNAc(b1-3)Gal(b1-4)GlcNAc(b1-3)Gal(b1-4)GlcNAc(b1-6)]Man(a1-6)[Gal(b1-4)GlcNAc(b1-3)Gal(b1-4)GlcNAc(b1-3)Gal(b1-4)GlcNAc(b1-3)Gal(b1-4)GlcNAc(b1-2)Man(a1-3)]Man(b1-4)GlcNAc(b1-4)[Fuc(a1-6)]GlcNAc", "outline": "as §1"}, "[8]": {"target": "Gal(b1-4)GlcNAc(b1-3)Gal(b1-4)GlcNAc(b1-3)Gal(b1-4)GlcNAc(b1-3)Gal(b1-4)GlcNAc(b1-3)Gal(b1-4)GlcNAc(b1-2)Man(a1-3)[Gal(b1-4)GlcNAc(b1-3)Gal(b1-4)GlcNAc(b1-3)Gal(b1-4)GlcNAc(b1-3)Gal(b1-4)GlcNAc(b1-3)Gal(b1-4)GlcNAc(b1-2)Man(a1-6)]Man(b1-4)GlcNAc(b1-4)GlcNAc", "outline": "as §1"}, "[9]": {"target": "Gal(b1-4)GlcNAc(b1-3)Gal(b1-4)GlcNAc(b1-3)Gal(b1-4)GlcNAc(b1-3)Gal(b1-4)GlcNAc(b1-3)Gal(b1-4)GlcNAc(b1-2)Man(a1-3)[Gal(b1-4)GlcNAc(b1-3)Gal(b1-4)GlcNAc(b1-3)Gal(b1-4)GlcNAc(b1-3)Gal(b1-4)GlcNAc(b1-3)Gal(b1-4)GlcNAc(b1-2)Man(a1-6)]Man(b1-4)GlcNAc(b1-4)[Fuc(a1-6)]GlcNAc", "outline": "as §1"}, "[10]": {"target": "Gal(b1-4)GlcNAc(b1-3)Gal(b1-4)GlcNAc(b1-3)Gal(b1-4)GlcNAc(b1-3)Gal(b1-4)GlcNAc(b1-3)Gal(b1-4)GlcNAc(b1-2)[Gal(b1-4)GlcNAc(b1-3)Gal(b1-4)GlcNAc(b1-3)Gal(b1-4)GlcNAc(b1-3)Gal(b1-4)GlcNAc(b1-3)Gal(b1-4)GlcNAc(b1-6)]Man(a1-6)[Gal(b1-4)GlcNAc(b1-3)Gal(b1-4)GlcNAc(b1-3)Gal(b1-4)GlcNAc(b1-3)Gal(b1-4)GlcNAc(b1-3)Gal(b1-4)GlcNAc(b1-2)Man(a1-3)]Man(b1-4)GlcNAc(b1-4)[Fuc(a1-6)]GlcNAc", "outline": "as §1"}, "[11]": {"target": "Gal(b1-4)GlcNAc(b1-3)Gal(b1-4)GlcNAc(b1-3)Gal(b1-4)GlcNAc(b1-3)Gal(b1-4)GlcNAc(b1-3)Gal(b1-4)GlcNAc(b1-3)Gal(b1-4)GlcNAc(b1-2)Man(a1-3)[Gal(b1-4)GlcNAc(b1-3)Gal(b1-4)GlcNAc(b1-3)Gal(b1-4)GlcNAc(b1-3)Gal(b1-4)GlcNAc(b1-3)Gal(b1-4)GlcNAc(b1-3)Gal(b1-4)GlcNAc(b1-2)Man(a1-6)]Man(b1-4)GlcNAc(b1-4)GlcNAc", "outline": "as §1"}, "[12]": {"target": "Gal(b1-4)GlcNAc(b1-3)Gal(b1-4)GlcNAc(b1-3)GalNAc", "outline": "as §1"}, "[13]": {"target": "Gal(b1-4)GlcNAc(b1-3)Gal(b1-4)GlcNAc(b1-3)[Gal(b1-4)GlcNAc(b1-3)Gal(b1-4)GlcNAc(b1-6)]GalNAc", "outline": "as §1"}, "[14]": {"target": "Gal(b1-4)GlcNAc(b1-3)Gal(b1-4)GlcNAc(b1-6)[Gal(b1-3)]GalNAc", "outline": "as §1"}, "[15]": {"target": "Gal(b1-4)GlcNAc(b1-3)Gal(b1-4)[Fuc(a1-3)]GlcNAc(b1-3)Gal(b1-4)[Fuc(a1-3)]GlcNAc", "outline": "as §1"}, "[16]": {"target": "Gal(b1-4)GlcNAc(b1-3)GalNAc", "outline": "as §1"}, "[17]": {"target": "Gal(b1-4)GlcNAc(b1-3)[Fuc(a1-3)GlcNAc(b1-6)]Gal(b1-4)Glc", "outline": "as §1"}, "[18]": {"target": "Gal(b1-4)GlcNAc(b1-3)[Gal(b1-4)GlcNAc(b1-6)]Gal(b1-4)GlcNAc", "outline": "as §1"}, "[19]": {"target": "Gal(b1-4)GlcNAc(b1-3)[GlcNAc(b1-6)]Gal(b1-4)GlcNAc", "outline": "as §1"}},
  "note": "The other results are listed elsewhere or left out.",
  "data": [
    {"binder": "Epa2 (Candida glabrata) (protein) MGSSHHHHHHSSGLVPRGSHMASSKDPTSFPMGCSPQVLKTQPGLAVKLYSYGHPVPGCAYNTYQYPDFPRSGYKKERKLADITGVNGRIDIDLKPNDPCRVLSGNLPSNYNYQNTLTYTNFTMILYGYFQPKVTGYHTFNLEADDLLFMNLGAGNAFDCCRAESTLDNFGNYQSYSIWGTDKATADLTVFLVSGIYYPIRLFYVNRDNNAVLDFSFSTEFNKEIIHDFTSYFFSASDEEQCPGNI", "values": [
      {"measurement": "glycan array binding signal (z-score)", "setting": "[1]", "result": -0.341},
      {"measurement": "glycan array binding signal (z-score)", "setting": "[2]", "result": 1.89},
      {"measurement": "glycan array binding signal (z-score)", "setting": "[3]", "result": 0.023},
      {"measurement": "glycan array binding signal (z-score)", "setting": "[4]", "result": 1.32},
      {"measurement": "glycan array binding signal (z-score)", "setting": "[5]", "result": 0.526},
      {"measurement": "glycan array binding signal (z-score)", "setting": "[6]", "result": 0.594},
      {"measurement": "glycan array binding signal (z-score)", "setting": "[7]", "result": 0.16},
      {"measurement": "glycan array binding signal (z-score)", "setting": "[8]", "result": 0.797},
      {"measurement": "glycan array binding signal (z-score)", "setting": "[9]", "result": 0.756},
      {"measurement": "glycan array binding signal (z-score)", "setting": "[10]", "result": 0.852},
      {"measurement": "glycan array binding signal (z-score)", "setting": "[11]", "result": -0.314},
      {"measurement": "glycan array binding signal (z-score)", "setting": "[12]", "result": 0.672},
      {"measurement": "glycan array binding signal (z-score)", "setting": "[13]", "result": 0.645},
      {"measurement": "glycan array binding signal (z-score)", "setting": "[14]", "result": 0.373},
      {"measurement": "glycan array binding signal (z-score)", "setting": "[15]", "result": -0.231},
      {"measurement": "glycan array binding signal (z-score)", "setting": "[16]", "result": -0.071},
      {"measurement": "glycan array binding signal (z-score)", "setting": "[17]", "result": 0.111},
      {"measurement": "glycan array binding signal (z-score)", "setting": "[18]", "result": 0.092},
      {"measurement": "glycan array binding signal (z-score)", "setting": "[19]", "result": -1.09}
    ]}
  ]
}
